According to US9113631B2, “1,3-diaryl-substituted heterocyclic pesticides” (E I DU PONT DE NEMOURS AND COMPANY, priority 2011, dated 2015):
Some of these results come from one statement about several compounds together. At least one compound was matched to its structure with a doubt left.

Legend:
Assay type in all cases: in vivo
[1] = system: potato leafhopper (Empoasca fabae); experiment: Test F: control of potato leafhopper on Soleil bean plant, contact and/or systemic; conditions: adults on Soleil bean plant, 6 days, 24° C.
Description: Test compounds were formulated using a solution containing 10% acetone, 90% water and 300 ppm X-77® Spreader Lo-Foam Formula non-ionic surfactant containing alkylarylpolyoxyethylene, free fatty acids, glycols and isopropanol (Loveland Industries, Inc. Greeley, Colo., USA). The formulated compounds were applied in 1 mL of liquid through a SUJ2 atomizer nozzle with 1/8 JJ custom body (Spraying Systems Co., Wheaton, Ill., USA) positioned 1.27 cm (0.5 inches) above the top of each test unit. Test compounds were sprayed at 250 ppm and/or 50 ppm, and replicated three times. After spraying of the formulated test compound, each test unit was allowed to dry for 1 h and then a black, screened cap was placed on top. The test units were held for 6 days in a growth chamber at 25° C. and 70% relative humidity. Plant feeding damage was then visually assessed based on foliage consumed.
For evaluating control of potato leafhopper (Empoasca fabae) through contact and/or systemic means, the test unit consisted of a small open container with a 5-6-day-old Soleil bean plant (primary leaves emerged) inside. White sand was added to the top of the soil and one of the primary leaves was excised prior to application.
Test compounds were formulated and sprayed at 250 ppm and/or 50 ppm, and the tests were replicated three times as described for Test A. After spraying, the test units were allowed to dry for 1 h before they were post-infested with 5 potato leafhoppers (18-21-day-old adults). A black, screened cap was placed on the top of each test unit, and the test units were held for 6 days in a growth chamber at 24° C. and 70% relative humidity. Each test unit was then visually assessed for insect mortality.

[2] = system: diamondback moth (Plutella xylostella); experiment: Test A: control of diamondback moth on radish plant, foliar spray; conditions: neonate larvae on radish plant, 6 days, 25° C., visually assessed
[3] = system: fall armyworm (Spodoptera frugiperda); experiment: Test B: control of fall armyworm on maize plant, foliar spray; conditions: 1-day-old larvae on maize plant, 25° C., visually rated

## O=C1CC2(CCN(Cc3cn(-c4ccc(Cl)c(Cl)c4)nc3-c3ccccc3F)CC2)CN1 [Compound 600]
[1]; sprayed at 250 ppm
  control efficacy, very good to excellent: mortality: ≥ 80%

## CC(=O)NCC1CCN(Cc2cn(-c3cccc(C(F)(F)F)c3)nc2-c2ccccc2F)CC1 [Compound 125]
[1]; sprayed at 250 ppm
  control efficacy, very good to excellent: mortality: ≥ 80%

## CC(=O)NC1CCN(Cc2cn(-c3ccc(C)cc3)nc2-c2ccccc2F)CC1 [Compound 568]
[1]; sprayed at 250 ppm
  control efficacy, very good to excellent: mortality: ≥ 80%

## CCOC(=O)N1CCN(Cc2cn(-c3ccc(C#N)c(C(F)(F)F)c3)nc2-c2ccccc2F)CC1 [Compound 213]
[1]; sprayed at 250 ppm
  control efficacy, very good to excellent: mortality: ≥ 80%

## CC(=O)NC1CCN(Cc2c(-c3ccccc3F)nn(-c3ccc(Cl)cc3)c2F)CC1 [Compound 761]
[1]; sprayed at 50 ppm
  control efficacy, very good to excellent: mortality: ≥ 80%
[1]; sprayed at 250 ppm
  control efficacy, very good to excellent: mortality: ≥ 80%

## O=C1NC(=O)C2(CCN(Cc3cn(-c4ccc(F)c(Cl)c4)nc3-c3c(F)cccc3F)CC2)N1 [Compound 685]
[1]; sprayed at 50 ppm
  control efficacy, very good to excellent: mortality: ≥ 80%
[1]; sprayed at 250 ppm
  control efficacy, very good to excellent: mortality: ≥ 80%

## CNC(=O)C1CCN(Cc2cn(-c3ccc(C)c(Cl)c3)nc2-c2ccccc2F)CC1 [Compound 137]
[1]; sprayed at 50 ppm
  control efficacy, very good to excellent: mortality: ≥ 80%
[1]; sprayed at 250 ppm
  control efficacy, very good to excellent: mortality: ≥ 80%

## O=CNC1CCN(Cc2cn(-c3ccc(OC(F)(F)F)cc3)nc2-c2ccccc2F)CC1 [Compound 692]
[1]; sprayed at 250 ppm
  control efficacy, very good to excellent: mortality: ≥ 80%

## CN(C)C1CCN(Cc2cn(-c3ccc(F)c(Cl)c3)nc2-c2ccccc2F)CC1 [Compound 702]
[1]; sprayed at 250 ppm
  control efficacy, very good to excellent: mortality: ≥ 80%

## CC(=O)N[C@H]1CCN(Cc2cn(-c3ccc(Cl)cc3)nc2-c2ccccc2F)C1 [Compound 751]
[1]; sprayed at 250 ppm
  control efficacy, very good to excellent: mortality: ≥ 80%

## CC(=O)NC1CCN(Cc2cn(-c3ccc(OC(F)(F)F)cc3)nc2-c2ccccc2Cl)CC1 [Compound 557]
[1]; sprayed at 250 ppm
  control efficacy, very good to excellent: mortality: ≥ 80%

## CNC(=O)C1CCN(Cc2cn(-c3ccc(F)c(F)c3)nc2-c2ccccc2F)CC1 [Compound 136]
[1]; sprayed at 50 ppm
  control efficacy, very good to excellent: mortality: ≥ 80%
[1]; sprayed at 250 ppm
  control efficacy, very good to excellent: mortality: ≥ 80%

## CCOC(=O)C1CCCN(Cc2cn(-c3ccc(Cl)c(Cl)c3)nc2-c2ccccc2C)C1 (stereo not drawn) [Compound 304]
[1]; sprayed at 250 ppm
  control efficacy, very good to excellent: mortality: ≥ 80%

## CC(=O)NC1CCCN(Cc2cn(-c3ccc(C#N)c(C(F)(F)F)c3)nc2-c2ccccc2F)C1 (stereo not drawn) [Compound 311]
[1]; sprayed at 250 ppm
  control efficacy, very good to excellent: mortality: ≥ 80%

## CC(=O)NCC1CCN(Cc2cn(-c3ccc(OC(F)(F)F)cc3)nc2-c2ccccc2F)CC1 [Compound 126]
[1]; sprayed at 250 ppm
  control efficacy, very good to excellent: mortality: ≥ 80%

## CC(=O)NC1CCN(Cc2cn(-c3ccc(F)cc3)nc2-c2ccccc2F)CC1 [Compound 573]
[1]; sprayed at 250 ppm
  control efficacy, very good to excellent: mortality: ≥ 80%

## CC(=O)NC1CCN(Cc2cn(-c3ccc(C)c(Cl)c3)nc2-c2ccccc2F)CC1 [Compound 113]
[1]; sprayed at 50 ppm
  control efficacy, very good to excellent: mortality: ≥ 80%
[1]; sprayed at 250 ppm
  control efficacy, very good to excellent: mortality: ≥ 80%

## N#CC1CCN(Cc2cn(-c3ccc(-c4ccccc4F)cc3)nc2-c2ccc(F)cc2F)CC1 [Compound 784]
[2]; sprayed at 50 ppm
  control efficacy, very good to excellent: feeding damage (40% or less feeding damage and/or 100% mortality): ≤ 40%
[3]; sprayed at 50 ppm
  control efficacy, very good to excellent: feeding damage (40% or less feeding damage and/or 100% mortality): ≤ 40%

## COC(=O)C1CCN(Cc2cn(-c3ccc(C)cc3)nc2-c2ccc(F)cc2)CC1 [Compound 4]
[2]; sprayed at 50 ppm
  control efficacy, very good to excellent: feeding damage (40% or less feeding damage and/or 100% mortality): ≤ 40%
[2]; sprayed at 250 ppm
  control efficacy, very good to excellent: feeding damage (40% or less feeding damage and/or 100% mortality): ≤ 40%
[3]; sprayed at 250 ppm
  control efficacy, very good to excellent: feeding damage (40% or less feeding damage and/or 100% mortality): ≤ 40%

## N#CC1CCN(Cc2cn(-c3cnc4ccccc4n3)nc2-c2ccccc2F)CC1 [Compound 857]
[2]; sprayed at 50 ppm
  control efficacy, very good to excellent: feeding damage (40% or less feeding damage and/or 100% mortality): ≤ 40%
[3]; sprayed at 50 ppm
  control efficacy, very good to excellent: feeding damage (40% or less feeding damage and/or 100% mortality): ≤ 40%

## COC(=O)C1CCCN(Cc2cn(-c3ccc(Cl)c(Cl)c3)nc2-c2ccccc2F)C1 (stereo not drawn) [Compound 314]
[1]; sprayed at 250 ppm
  control efficacy, very good to excellent: mortality: ≥ 80%
